This assay addresses CRT N+P结构域 (CALR N+P) (UniProt P27797). Description: ELISA, plate coated with CRT protein, HA-tagged nanobody detected with anti-HA. For orientation: An ELISA detects its analyte on a solid surface through an enzyme-linked reagent.

No constants are given. Whether binding was seen depends on the method and setting. Some binding calls cover weakened binding; strength is not graded here.

B1: 204纳米抗体 (VHH, not shown: small tags and cut ends)
VHH: AVQLVESGGGLVQAGGSLRLSCVASGRPFSLYAVGWFRQAPGKAREFVAAISRSGSTTDHADSVKGRFTVSRDNDANTVSLLMSNLKPEDTAIYYCAAARSTRGYDYWGQGTQVTVSS
Regarding B1, the binding result is “binds”.
